B1: CGN (protein, UniProt Q9P2M7 1-1203)
chain: MEQAPNMAEPRGPVDHGVQIRFITEPVSGAEMGTLRRGGRRPAKDARASTYGVAVRVQGIAGQPFVVLNSGEKGGDSFGVQIKGANDQGASGALSSDLELPENPYSQVKGFPAPSQSSTSDEEPGAYWNGKLLRSHSQASLAGPGPVDPSNRSNSMLELAPKVASPGSTIDTAPLSSVDSLINKFDSQLGGQARGRTGRRTRMLPPEQRKRSKSLDSRLPRDTFEERERQSTNHWTSSTKYDNHVGTSKQPAQSQNLSPLSGFSRSRQTQDWVLQSFEEPRRSAQDPTMLQFKSTPDLLRDQQEAAPPGSVDHMKATIYGILREGSSESETSVRRKVSLVLEKMQPLVMVSSGSTKAVAGQGELTRKVEELQRKLDEEVKKRQKLEPSQVGLERQLEEKTEECSRLQELLERRKGEAQQSNKELQNMKRLLDQGEDLRHGLETQVMELQNKLKHVQGPEPAKEVLLKDLLETRELLEEVLEGKQRVEEQLRLRERELTALKGALKEEVASRDQEVEHVRQQYQRDTEQLRRSMQDATQDHAVLEAERQKMSALVRGLQRELEETSEETGHWQSMFQKNKEDLRATKQELLQLRMEKEEMEEELGEKIEVLQRELEQARASAGDTRQVEVLKKELLRTQEELKELQAERQSQEVAGRHRDRELEKQLAVLRVEADRGRELEEQNLQLQKTLQQLRQDCEEASKAKMVAEAEATVLGQRRAAVETTLRETQEENDEFRRRILGLEQQLKETRGLVDGGEAVEARLRDKLQRLEAEKQQLEEALNASQEEEGSLAAAKRALEARLEEAQRGLARLGQEQQTLNRALEEEGKQREVLRRGKAELEEQKRLLDRTVDRLNKELEKIGEDSKQALQQLQAQLEDYKEKARREVADAQRQAKDWASEAEKTSGGLSRLQDEIQRLRQALQASQAERDTARLDKELLAQRLQGLEQEAENKKRSQDDRARQLKGLEEKVSRLETELDEEKNTVELLTDRVNRGRDQVDQLRTELMQERSARQDLECDKISLERQNKDLKTRLASSEGFQKPSASLSQLESQNQLLQERLQAEEREKTVLQSTNRKLERKVKELSIQIEDERQHVNDQKDQLSLRVKALKRQVDEAEEEIERLDGLRKKAQREVEEQHEVNEQLQARIKSLEKDSWRKASRSAAESALKNEGLSSDEEFDSVYDPSSIASLLTESNLQTSSC

Chains of the proteins cited; added tags and fusions are not shown. Residues count along the entry.
UniProt Q9UBS4, residues 23-358: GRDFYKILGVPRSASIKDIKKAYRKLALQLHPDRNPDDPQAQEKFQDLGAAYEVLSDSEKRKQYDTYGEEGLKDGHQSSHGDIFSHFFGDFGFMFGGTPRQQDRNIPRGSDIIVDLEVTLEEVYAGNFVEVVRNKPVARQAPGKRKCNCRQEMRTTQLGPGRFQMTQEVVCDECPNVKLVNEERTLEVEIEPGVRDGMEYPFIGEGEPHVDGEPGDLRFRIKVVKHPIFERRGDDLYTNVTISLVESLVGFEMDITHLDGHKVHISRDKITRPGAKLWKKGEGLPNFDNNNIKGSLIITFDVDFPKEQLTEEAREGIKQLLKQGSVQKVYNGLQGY
UniProt P11021, residues 19-654: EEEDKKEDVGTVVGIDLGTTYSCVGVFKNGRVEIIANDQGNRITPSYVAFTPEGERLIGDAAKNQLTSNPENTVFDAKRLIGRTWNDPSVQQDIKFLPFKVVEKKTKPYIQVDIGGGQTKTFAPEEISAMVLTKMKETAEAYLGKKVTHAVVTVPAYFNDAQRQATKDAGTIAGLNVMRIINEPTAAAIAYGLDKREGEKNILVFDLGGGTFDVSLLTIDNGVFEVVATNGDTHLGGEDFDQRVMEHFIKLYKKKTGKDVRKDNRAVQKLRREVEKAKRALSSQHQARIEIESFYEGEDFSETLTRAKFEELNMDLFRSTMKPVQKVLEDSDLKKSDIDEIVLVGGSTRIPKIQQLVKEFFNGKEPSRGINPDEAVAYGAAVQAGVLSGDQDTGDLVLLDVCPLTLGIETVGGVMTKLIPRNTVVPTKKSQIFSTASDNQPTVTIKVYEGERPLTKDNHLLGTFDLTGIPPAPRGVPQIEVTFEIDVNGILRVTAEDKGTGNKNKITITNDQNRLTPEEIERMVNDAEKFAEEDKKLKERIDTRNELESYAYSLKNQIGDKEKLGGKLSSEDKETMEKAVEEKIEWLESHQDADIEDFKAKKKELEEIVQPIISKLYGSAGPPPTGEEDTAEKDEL
UniProt P06396, residues 28-782: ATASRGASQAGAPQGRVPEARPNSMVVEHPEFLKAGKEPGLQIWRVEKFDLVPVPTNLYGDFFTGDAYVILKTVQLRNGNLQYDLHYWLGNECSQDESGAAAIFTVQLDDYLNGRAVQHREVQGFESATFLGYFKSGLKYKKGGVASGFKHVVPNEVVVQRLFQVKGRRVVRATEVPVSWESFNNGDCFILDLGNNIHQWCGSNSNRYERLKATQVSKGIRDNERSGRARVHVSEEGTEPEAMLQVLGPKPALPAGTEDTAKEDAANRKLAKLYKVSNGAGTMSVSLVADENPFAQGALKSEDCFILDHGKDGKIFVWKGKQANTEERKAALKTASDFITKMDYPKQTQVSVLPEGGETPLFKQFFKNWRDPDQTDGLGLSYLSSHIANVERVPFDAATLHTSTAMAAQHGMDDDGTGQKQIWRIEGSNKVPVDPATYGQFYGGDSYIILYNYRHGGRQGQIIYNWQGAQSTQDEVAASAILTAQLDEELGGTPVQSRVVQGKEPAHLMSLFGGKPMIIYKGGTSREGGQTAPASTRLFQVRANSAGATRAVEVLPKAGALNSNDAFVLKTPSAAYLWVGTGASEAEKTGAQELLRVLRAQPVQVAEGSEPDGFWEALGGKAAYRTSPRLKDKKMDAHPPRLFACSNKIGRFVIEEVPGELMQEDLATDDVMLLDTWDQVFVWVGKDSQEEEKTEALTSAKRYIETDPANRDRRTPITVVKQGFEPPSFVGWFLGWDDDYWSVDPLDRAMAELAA
UniProt P05187, residues 23-506: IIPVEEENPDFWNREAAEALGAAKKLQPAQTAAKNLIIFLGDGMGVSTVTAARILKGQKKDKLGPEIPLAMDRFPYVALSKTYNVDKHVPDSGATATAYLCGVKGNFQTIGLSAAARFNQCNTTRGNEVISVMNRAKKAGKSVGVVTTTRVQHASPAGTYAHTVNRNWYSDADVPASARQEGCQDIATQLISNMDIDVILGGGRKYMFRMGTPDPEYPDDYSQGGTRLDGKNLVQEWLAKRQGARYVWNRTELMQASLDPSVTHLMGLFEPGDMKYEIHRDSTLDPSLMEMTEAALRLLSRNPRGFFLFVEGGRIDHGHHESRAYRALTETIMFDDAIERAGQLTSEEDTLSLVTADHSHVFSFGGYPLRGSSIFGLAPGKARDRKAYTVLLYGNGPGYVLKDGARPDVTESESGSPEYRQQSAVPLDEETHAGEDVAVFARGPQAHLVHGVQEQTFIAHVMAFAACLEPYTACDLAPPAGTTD
UniProt P08174, residues 35-353: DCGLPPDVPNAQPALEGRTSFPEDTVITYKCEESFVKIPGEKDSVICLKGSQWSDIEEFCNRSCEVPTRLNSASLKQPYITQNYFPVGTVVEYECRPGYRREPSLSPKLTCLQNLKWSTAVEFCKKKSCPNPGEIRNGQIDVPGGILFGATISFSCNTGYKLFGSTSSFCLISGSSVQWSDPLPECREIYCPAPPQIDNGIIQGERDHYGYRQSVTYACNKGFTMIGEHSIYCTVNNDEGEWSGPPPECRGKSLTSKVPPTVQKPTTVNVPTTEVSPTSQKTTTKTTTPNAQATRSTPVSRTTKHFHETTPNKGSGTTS

No constants are given. Whether binding was seen depends on the method and setting. Binding seen in cells or lysates may run through a third protein. Here binding means that the protein was enriched with, or labelled near, the bait; the list need not be complete.

One assay concerns the target DnaJ Heat Shock Protein Family (Hsp40) Member B11 (human (endogenous in pancreatic cancer cells)) (UniProt Q9UBS4). In words: affinity purification with mass spectrometry; cells lysed in RIPA buffer with protease and phosphatase inhibitors; lysate incubated with anti-DNAJB11 antibody overnight at 4 °C, protein A agarose 4 h, washed thrice with lysis buffer; eluate on SDS-PAGE, then LC-MS/MS; IgG as negative control.
For B1, the binding result was “binds”.

The next assay shares this target. The description is as above. The source holds these as a separate data set.
With “EGFR (from UniProt P00533 25-1210) (receptor)”, the binding entry is given as “binds”.
In the case of “Heat Shock Protein Family A (Hsp70) Member 5 (from UniProt P11021 19-654)”, the binding result is “binds”.
Regarding GSN (from UniProt P06396 28-782), the binding result is “binds”.
On to ALPP (from UniProt P05187 23-506), for which the binding result is on record as “binds”.
As to CD55 (from UniProt P08174 35-353), the binding entry is recorded as “binds”.

These data come from PMC9548179.
